According to PMC5031558:
Results are given in words; binding and its absence hold for the method and conditions named. Binding calls can cover weak binding; strength is not graded here. Blank lines part the entries; values can stand above or below the binder they belong to.

By UniProt entry, the sequences of proteins in these tests, tags left out. Where a name states a change or a piece, a line headed by the entry shows the natural chain unless it says otherwise.
UniProt Q9UM82: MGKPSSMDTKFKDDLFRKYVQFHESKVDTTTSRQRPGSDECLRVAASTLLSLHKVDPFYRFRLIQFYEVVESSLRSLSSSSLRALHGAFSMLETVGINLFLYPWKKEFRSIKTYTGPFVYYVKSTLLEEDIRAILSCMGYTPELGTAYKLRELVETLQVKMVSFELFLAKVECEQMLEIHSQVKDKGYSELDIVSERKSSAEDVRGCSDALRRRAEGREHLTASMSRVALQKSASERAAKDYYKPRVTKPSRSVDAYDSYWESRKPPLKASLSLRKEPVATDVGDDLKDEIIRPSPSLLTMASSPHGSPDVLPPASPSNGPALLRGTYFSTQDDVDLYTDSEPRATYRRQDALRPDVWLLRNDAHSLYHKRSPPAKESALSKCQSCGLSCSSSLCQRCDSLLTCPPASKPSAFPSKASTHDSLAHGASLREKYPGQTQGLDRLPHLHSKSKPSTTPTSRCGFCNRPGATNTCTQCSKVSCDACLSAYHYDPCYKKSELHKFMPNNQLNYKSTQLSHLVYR

Tests used:
Experiment in all cases: pull-down; in vitro pull-down with GST-SPATA2 PUB domain (WT or mutants) against CYLD USP domain variants; both purified
[1] = biological target: GST-SPATA2 PUB domain T94K (UniProt Q9UM82)
[2] = biological target: GST-SPATA2 PUB domain Y114A (UniProt Q9UM82)
[3] = biological target: GST-SPATA2 PUB domain T115N (UniProt Q9UM82)
[4] = biological target: GST-SPATA2 PUB domain N98A (UniProt Q9UM82)
[5] = biological target: GST-SPATA2 PUB domain T115A (UniProt Q9UM82)
GST-SPATA2 PUB domain = GST-SPATA2 PUB domain (UniProt Q9UM82)

- binding [1]: binds
- binding [2]: binds
- binding [3]: binds
- binding [4]: binds
- binding [5]: binds
- binding (GST-SPATA2 PUB domain): binds
B1: CYLD USP domain (aa 583–956) (domain or fragment, UniProt Q9NQC7 583-956)
chain: GLEIMIGKKKGIQGHYNSCYLDSTLFCLFAFSSVLDTVLLRPKEKNDVEYYSETQELLRTEIVNPLRIYGYVCATKIMKLRKILEKVEAASGFTSEEKDPEEFLNILFHHILRVEPLLKIRSAGQKVQDCYFYQIFMEKNEKVGVPTIQQLLEWSFINSNLKFAEAPSCLIIQMPRFGKDFKLFKKIFPSLELNITDLLEDTPRQCRICGGLAMYECRECYDDPDISAGKIKQFCKTCNTQVHLHPKRLNHKYNPVSLPKDLPDWDWRHGCIPCQNMELFAVLCIETSHYVAFVKYGKDDSAWLFFDSMADRDGGQNGFNIPQVTPCPEVGEYLKMSLEDLHSLDSRRIQGCARRLLCDAYMCMYQSPTMSLYK

- binding (GST-SPATA2 PUB domain): no binding
B2: CYLD B-box domain (aa 778–855) (domain or fragment, UniProt Q9NQC7 778-855)
chain: TDLLEDTPRQCRICGGLAMYECRECYDDPDISAGKIKQFCKTCNTQVHLHPKRLNHKYNPVSLPKDLPDWDWRHGCIP
modifications: 15N-labelled in the NMR titration
